Patent publication US20160251438A1
Results are given in words; binding and its absence hold for the method and conditions named. Some results given as binding are weak or reduced against the parent protein; the word gives no strength.

Target: hGARP mut II / hTGF-β1 complex on the cell surface
Experiment: FACS, 293T, HA-tagged mutant + hTGFB1 [cont.) B]

binding: binds
B1: LHG-10 (antibody, human IgG1, V domains shown)
VH: EVQLVQPGAELRNSGASVKVSCKASGYRFTSYYIDWVRQAPGQGLEWMGRIDPEDGGTKYAQKFQGRVTFTADTSTSTAYVELSSLRSEDTAVYYCARNEWETVVVGDLMYEYEYWGQGTQVTVSS
VL: DIQMTQSPTSLSASLGDRVTITCQASQSISSYLAWYQQKPGQAPKLLIYGASRLQTGVPSRFSGSGSGTSFTLTISGLEAEDAGTYYCQQYDSLPVTFGQGTKVELK
